Assay results as given in US20130197191A1 (Amgen, published 2013).

T1: recombinant human β-Klotho (human, UniProt Q86Z14 53-996, limits assumed, biotinylated in the AlphaScreen assays (site not stated))
T1 construct: also called rhβ-klotho; huβKlotho-His
T1 sequence: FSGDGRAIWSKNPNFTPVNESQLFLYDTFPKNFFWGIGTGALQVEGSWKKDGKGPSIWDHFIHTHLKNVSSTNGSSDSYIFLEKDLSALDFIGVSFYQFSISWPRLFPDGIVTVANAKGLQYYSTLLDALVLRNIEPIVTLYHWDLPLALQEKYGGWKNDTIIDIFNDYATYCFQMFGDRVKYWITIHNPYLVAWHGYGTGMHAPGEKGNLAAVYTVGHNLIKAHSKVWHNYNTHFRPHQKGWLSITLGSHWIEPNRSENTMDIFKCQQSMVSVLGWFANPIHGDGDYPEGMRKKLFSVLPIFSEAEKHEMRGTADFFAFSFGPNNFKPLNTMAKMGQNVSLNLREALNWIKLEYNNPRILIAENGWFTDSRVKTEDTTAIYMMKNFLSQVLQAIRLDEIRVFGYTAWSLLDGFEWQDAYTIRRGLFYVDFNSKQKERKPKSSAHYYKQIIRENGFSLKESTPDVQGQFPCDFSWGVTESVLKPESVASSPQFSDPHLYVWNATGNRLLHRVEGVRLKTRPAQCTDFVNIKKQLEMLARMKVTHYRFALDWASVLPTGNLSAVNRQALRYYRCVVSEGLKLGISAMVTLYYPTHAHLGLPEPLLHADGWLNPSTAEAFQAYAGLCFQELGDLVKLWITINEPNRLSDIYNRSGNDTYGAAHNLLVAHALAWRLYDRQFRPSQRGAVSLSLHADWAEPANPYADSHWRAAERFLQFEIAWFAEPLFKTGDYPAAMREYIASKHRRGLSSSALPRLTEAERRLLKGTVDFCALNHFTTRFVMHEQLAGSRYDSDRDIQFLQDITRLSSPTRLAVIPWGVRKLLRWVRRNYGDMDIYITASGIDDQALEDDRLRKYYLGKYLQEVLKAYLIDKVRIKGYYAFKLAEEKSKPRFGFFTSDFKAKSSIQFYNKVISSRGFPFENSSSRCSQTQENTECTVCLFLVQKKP

T2: human FGFR1c-Fc (human, UniProt P11362 22-376)
T2 construct: also called huFGFR1c-Fc; huFGFR1c/Fc
T2 sequence: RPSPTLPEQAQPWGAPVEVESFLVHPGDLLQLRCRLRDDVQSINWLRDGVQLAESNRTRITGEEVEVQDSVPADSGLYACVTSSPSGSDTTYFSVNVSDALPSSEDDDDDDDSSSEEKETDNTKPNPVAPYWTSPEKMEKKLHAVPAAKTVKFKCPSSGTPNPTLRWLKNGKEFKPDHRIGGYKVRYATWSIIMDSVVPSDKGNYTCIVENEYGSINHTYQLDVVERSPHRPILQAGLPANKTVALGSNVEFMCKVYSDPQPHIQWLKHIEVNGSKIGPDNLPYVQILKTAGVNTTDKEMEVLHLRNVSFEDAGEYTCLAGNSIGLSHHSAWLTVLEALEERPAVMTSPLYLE


target: T1, recombinant human β-Klotho; assay: phage panning

Binder | binding result
β-Klotho walked dimer BK_R1c_D19 (designed binder) CPPSQFTCGNGRCVSLGWVCDGLNDCGDGSDESPALCSAPASEPPGSLCAPGEFTCKSGQCIPLHWLCDGDNDCGDNSDESPATCKATVPT | binds
β-Klotho walked dimer BK_R1c_D20 (designed binder) CPPSQFTCGNGRCVSLGWVCDGLNDCGDGSDESPALCSAPASEPPGSLCPPGQFRCNNGRCIPQPWLCDGDDDCQDNSDEENCESPGPT | binds
β-Klotho walked dimer bKWD17 (designed binder) CPPSQFTCGNGRCVSLGWVCDGLNDCGDGSDESPALCSAPASEPPGSLCPPDQFRCRNGRCVPLAWVCDGEDDCQDNSDETDCKRSVRT | binds

target: T2, human FGFR1c-Fc; assay: phage panning

Binder | binding result
CGPIQFTCRNTNICLSVHWVCDGEDDCEDGSDEEGCGRPGPGATSAPAA (designed binder) [FGFR1c-binding monomer M19] | binds
CGPSQFTCRNTNICISLRWRCDGVDDCEDNSDEEGCGTTGPT (designed binder) [FGFR1c-binding monomer M21] | binds
CGSNQFTCRSTNICISQAWVCDGVDDCEDDSDETGCSQDPEFHKV (designed binder, also called M23ori; R1cM23) [FGFR1c-binding monomer M23] | binds
CASGQFTCRSTNICLSLAWLCDGDDDCEDNSDESPAICSAPASEPPGSL (designed binder) [FGFR1c-binding monomer M02] | binds
CGAGQFQCRSTNICISLKWVCDGVDDCEDNSDETSCSAPASEPPGSL (designed binder) [FGFR1c-binding monomer M05] | binds
CGAGQFTCRSTKICISQAWVCDGVDDCEDNSDETSCSAPASEPPGSL (designed binder) [FGFR1c-binding monomer M11] | binds
CGTGQFTCRSTKICISQAWVCDGVDDCEDNSDEKNCSAPASEPPGSL (designed binder) [FGFR1c-binding monomer M30] | binds

target: T1, recombinant human β-Klotho; assay: phage panning; remark: another data set of the same source

Binder | binding result
β-Klotho walked dimer bKWD23 (designed binder) CGPSQFQCSNGRCLPATWVCDGDDDCLDGSDEASATCATRTCPSNQFPCRSTGICIPLAWVCDGLNDCGDGSDESPAHCSQDPGFHKV | binds

target: T1, recombinant human β-Klotho; assay: phage panning; remark: another data set of the same source

Binder | binding result
β-Klotho walked dimer bKWD14 (designed binder) CGPDQFRCKSGNCLPLNWVCDGVDDCGDSSDEEGCATPTCLPDEFQCGSGRCIPQTWVCDGLNDCGDGSDESPAHCSQDPEFHKV | binds
β-Klotho walked dimer bKWD13 (designed binder) CGPDEFRCNSGRCLPLDWRCDGVDDCEDGSDEAPDLCKTPARTCLPDEFQCGSGRCIPQTWVCDGLNDCGDGSDESPAHCSQDPEFHKV | binds

target: T1, recombinant human β-Klotho; assay: phage panning; remark: another data set of the same source

Binder | binding result
β-Klotho walked dimer bKWD37 (designed binder) CLSDQFQCNNYETCIPRPWLCDGDDDCVDGSDEEDCETRTCHSFNQFECRNGQCIPLHLVCDGVPDCGDNSDETDCGDSHILPFSTPGPST | binds

target: T1, recombinant human β-Klotho; assay: phage panning; remark: another data set of the same source

Binder | binding result
CGSNQFTCRSTNICISQAWVCDGVDDCEDDSDETGCSQDPEFHKV (designed binder, also called M23ori; R1cM23) [FGFR1c-binding monomer M23] | binds
CRPGEFRCRSTNTCISQSLRCDGEPDCRDGSDEPEDCESVAHT (designed binder) [β-Klotho-binding monomer M16] | binds
CHHHHFHCLSGECINTWRCDGGPDCKDKSDEENCPTKRPEEV (designed binder) [β-Klotho-binding monomer M30] | binds
CSAFEFHCLSGECIHSSWRCDWYWDCKDYWDPLVCELEA (designed binder) [β-Klotho-binding monomer M40] | binds
CSAFEFHCLSGECIHSSWRCDWDDDCKDWQDYVMCALEA (designed binder) [β-Klotho-binding monomer M38] | binds
β-Klotho-binding monomer M53 (designed binder) CLPGQFRCNSGHCLSQTWVCDGYNDCGDGSDEPLATCGDSHILPFSTPGPST | binds
